These are yes or no findings as the source states them, for the method shown. Some entries that bind do so weakly or less than the wild type.
Target: immunizing peptide … (SEQ ID NO: 27)
Assay: PEPSCAN ELISA on overlapping linear and CLIPS peptides based on SEQ ID NO:27

binding: binds
B1: antibody 33E3.10 (antibody, V domains shown)
VH: EVKLVESGGGLVKPGGSLKLSCAASGFTFSNSAMTWVRQTPEKRLEWVASISGGGTTYYPDSVKGRFTISRDNARNILYLQMSSLRSEDTAIYYCARSHYWGQGTTLTVSS
VL: DIVMTQSQKFMSTSIGDRVSVTCKASQNVVTNVAWYQQKPGQSPKALIYSASYRYSGVPDRFTGSGSGTDFTLTISNVQSEDLAEYFCQQYNSYPYTFGGGTKLEIK

From US20180264108A1 (ENCARE BIOTECH B V, published 2018)
